According to article PMC10087625:
These are yes or no findings as the source states them, for the method shown. Binding seen in cells or lysates may run through a third protein. Some results given as binding are weak or reduced against the parent protein; the word gives no strength.

Protein sequences, listed by entry. Tags and fused reporters are not part of them.
UniProt Q04207: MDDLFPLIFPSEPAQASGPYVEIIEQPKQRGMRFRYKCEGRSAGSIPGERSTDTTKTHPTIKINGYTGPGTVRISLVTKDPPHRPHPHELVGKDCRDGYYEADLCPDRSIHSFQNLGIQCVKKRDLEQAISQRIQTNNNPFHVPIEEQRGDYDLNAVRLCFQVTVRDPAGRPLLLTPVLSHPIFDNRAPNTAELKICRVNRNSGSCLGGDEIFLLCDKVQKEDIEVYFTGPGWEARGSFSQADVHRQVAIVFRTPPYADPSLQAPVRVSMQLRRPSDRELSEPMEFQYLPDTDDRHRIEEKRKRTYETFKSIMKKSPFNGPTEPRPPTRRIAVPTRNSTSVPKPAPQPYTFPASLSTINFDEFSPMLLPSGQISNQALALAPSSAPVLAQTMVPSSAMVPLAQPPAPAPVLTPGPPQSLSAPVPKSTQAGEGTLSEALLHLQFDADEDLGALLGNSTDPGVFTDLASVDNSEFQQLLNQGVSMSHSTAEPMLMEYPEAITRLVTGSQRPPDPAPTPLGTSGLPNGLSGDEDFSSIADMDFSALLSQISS
UniProt Q8R4B8: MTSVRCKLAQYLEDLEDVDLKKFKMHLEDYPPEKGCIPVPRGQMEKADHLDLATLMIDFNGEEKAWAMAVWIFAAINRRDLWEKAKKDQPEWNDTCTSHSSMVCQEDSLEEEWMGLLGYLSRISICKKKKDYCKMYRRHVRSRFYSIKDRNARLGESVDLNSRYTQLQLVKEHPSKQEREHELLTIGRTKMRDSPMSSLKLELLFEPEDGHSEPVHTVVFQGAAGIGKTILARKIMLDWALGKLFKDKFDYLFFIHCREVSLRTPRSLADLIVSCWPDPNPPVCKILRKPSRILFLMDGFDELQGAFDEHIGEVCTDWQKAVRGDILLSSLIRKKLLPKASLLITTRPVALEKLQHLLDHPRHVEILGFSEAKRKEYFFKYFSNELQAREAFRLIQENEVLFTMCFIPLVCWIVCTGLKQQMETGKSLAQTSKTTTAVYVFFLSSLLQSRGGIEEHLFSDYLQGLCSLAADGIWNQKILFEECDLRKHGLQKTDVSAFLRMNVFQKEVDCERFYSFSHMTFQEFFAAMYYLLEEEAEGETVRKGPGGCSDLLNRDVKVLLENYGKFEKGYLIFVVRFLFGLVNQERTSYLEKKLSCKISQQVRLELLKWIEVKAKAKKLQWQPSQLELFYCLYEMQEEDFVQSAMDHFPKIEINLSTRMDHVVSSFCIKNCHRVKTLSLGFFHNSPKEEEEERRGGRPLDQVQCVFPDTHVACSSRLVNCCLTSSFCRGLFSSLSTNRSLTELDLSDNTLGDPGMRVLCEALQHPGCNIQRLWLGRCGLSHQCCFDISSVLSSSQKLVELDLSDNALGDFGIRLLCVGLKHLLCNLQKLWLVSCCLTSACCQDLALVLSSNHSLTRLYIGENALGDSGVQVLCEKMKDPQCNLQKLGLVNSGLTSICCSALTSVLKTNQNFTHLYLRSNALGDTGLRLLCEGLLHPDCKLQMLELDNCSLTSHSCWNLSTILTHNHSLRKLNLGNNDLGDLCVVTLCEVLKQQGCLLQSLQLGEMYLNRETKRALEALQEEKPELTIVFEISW

Target: NF-κB p65 (mouse (endogenous in RAW 264.7)) (UniProt Q04207)
Assay: co-IP; lysate of RAW 264.7 cells (CTR, LPS 100 ng/ml 24 h, or pretreated with resveratrol 10 uM before LPS); IP with anti-NF-κB p65 or non-specific IgG overnight at 4 °C, protein A/G-sepharose, immunoblot for NF-κB p65 and NLRP3

NLRP3 (from UniProt Q8R4B8 1-1033)
binding: binds
